Results on one molecule are retold here after publication doi:10.1101/2023.09.29.560215.

These are yes or no findings as the source states them, for the method shown. Some results given as binding are weak or reduced against the parent protein; the word gives no strength.

The experiment addresses prion-like domain (PLD) linker of CP29A (176-254 aa) (Arabidopsis thaliana) (UniProt Q43349). The experiment can be described thus: NMR titration.

B1: prion-like domain (PLD) linker of CP29A (176-254 aa) (domain or fragment, UniProt Q43349 176-254)
chain: PPPPKREESFSRGPRSGGYGSERGGGYGSERGGGYGSERGGGYGSERGGGYGSQRSGGGYGGSQRSSYGSGSGSGSGSG
Turning to B1, the binding entry is reported as “binds weakly”.
